For at least one compound, name, drawing or mass did not settle the structure.
Tested on: foreskin cells
Assay: Foreskin cell growth in DF5SFe-based media
Set-up: species or system human
Settings: added to DF5SFe to replace FBS
Experimental: To determine growth factors that can help primary foreskin cell growth, individual growth factors contained in FBS were tested. The FGF family of growth factors has several members, one or more of which is commonly used for fibroblast culture. DF5SFe contains 100 ng/ml zebrafish recombinant FGF2. Each FGF family member was tested for its ability to support foreskin cell growth. Foreskin cells were aliquoted into the well of culture plates and incubated for 24 hours in DF5SFe minus FGF. Individual FGF types were added at 100 ng/ml for 96 h.

C[C@@H]1C[C@H]2[C@@H]3CCC4=CC(=O)C=C[C@]4(C)[C@@]3(F)[C@@H](O)C[C@]2(C)[C@@]1(O)C(=O)CO [dexamethasone, reference compound]
foreskin cell growth: improved cell growth significantly

Source: US9279107B2, “Simplified basic media for human pluripotent cell culture” (WISCONSIN ALUMNI RESEARCH FOUNDATION, priority 2010, dated 2016)
